LdMetRS: 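Methionyl-tRNA synthetase (putative), Leishmania donovani (UniProt E9BF75). Primary screen of methionyl-tRNA synthetase; the read-out is not stated. The test concentration is not given. The values are filed as inhibition. Size under these conditions: about 68,000 compounds, about 24 of them at 50% or above in at least one test.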
Mtb heat-shock: 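Assay on Mycobacterium tuberculosis, filed only as a heat shock assay from Cornell; the read-out is not stated. The concentration is filed as 10 mM, unlikely as a test dose, so the dose is not known. The record gives no direction; compounds that gave an IC50 in retests scored well above the rest, so higher reads as stronger inhibition. About 69,000 compounds were tested under these conditions; 1.4% (about 930) showed 50% or more at least once.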

The chains behind the UniProt entries cited, without tags or fusion partners.
UniProt E9BF75, entry or part of it: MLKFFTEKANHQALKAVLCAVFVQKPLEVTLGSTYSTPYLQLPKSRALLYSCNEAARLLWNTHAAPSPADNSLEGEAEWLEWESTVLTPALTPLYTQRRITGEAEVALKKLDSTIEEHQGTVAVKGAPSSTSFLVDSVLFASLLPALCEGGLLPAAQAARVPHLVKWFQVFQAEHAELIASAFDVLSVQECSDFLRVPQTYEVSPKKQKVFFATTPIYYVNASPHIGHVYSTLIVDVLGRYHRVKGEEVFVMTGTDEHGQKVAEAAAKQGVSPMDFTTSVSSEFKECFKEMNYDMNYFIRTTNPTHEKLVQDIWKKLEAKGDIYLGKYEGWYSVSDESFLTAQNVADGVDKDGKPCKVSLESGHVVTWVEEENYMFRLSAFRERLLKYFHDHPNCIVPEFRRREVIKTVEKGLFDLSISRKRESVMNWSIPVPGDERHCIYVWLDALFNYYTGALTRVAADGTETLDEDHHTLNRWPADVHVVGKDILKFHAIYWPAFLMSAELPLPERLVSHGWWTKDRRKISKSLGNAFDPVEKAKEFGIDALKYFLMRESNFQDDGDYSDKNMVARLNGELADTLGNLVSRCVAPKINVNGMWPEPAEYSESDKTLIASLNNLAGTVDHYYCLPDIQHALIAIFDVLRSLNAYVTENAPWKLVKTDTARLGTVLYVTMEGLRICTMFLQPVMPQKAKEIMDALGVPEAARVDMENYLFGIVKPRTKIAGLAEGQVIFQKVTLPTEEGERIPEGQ

Results are percentages, as filed. The record does not define 0% and 100%; most values in the screen are far below 50% and negative numbers occur (in some assays of this library far below -100). This is an unselected part of the compounds tested. A dash means the value is not listed here; it may have been measured.

| # | compound | LdMetRS | Mtb heat-shock |
|---|---|---|---|
| 1 | `Cn1cnc(S(=O)(=O)NCCCN2CCCCCC2)c1Cl` | 7.843 | 12.02 |
| 2 | `Cc1cc(C[C@@H]2CCC[C@H]2NCc2cc(C)c(O)c(C)c2)on1.O=C(O)CC(O)(CC(=O)O)C(=O)O` | - | 10.63 |
| 3 | `COC[C@H]1CCC[C@]12CN(C(=O)NCc1ccccc1)CCO2` | 15.35 | 8.42 |
| 4 | `CN(C)c1ccc(NC(=O)NCc2cccnc2N(C)C)cn1` | 18.18 | -1.005 |
| 5 | `O=C(CC1CCCC1)N1CCn2cc(Cn3cccn3)nc2C1.O=C(O)C(F)(F)F` | - | -3.103 |
| 6 | `Cc1cc2ccccc2n1CCC(=O)N1CCC2(CC1)CNC(=O)C2` | 18.75 | -9.922 |
| 7 | `COCC[C@]1(O)CCN(S(=O)(=O)c2ccc(C)cc2OC)C[C@H]1C` | 13.54 | 0.9129 |
| 8 | `O=CO.c1cc2nccc(CC3CCCN(Cc4c[nH]cn4)CC3)c2cn1` (configuration not stated) | - | -8.502 |
| 9 | `CN(C)CCN1C(=O)CO[C@@H]2CN(c3ncc(F)cn3)C[C@H]21` | 13.04 | - |
| 10 | `COc1ccc(CCN2C(=O)O[C@@H]3CN(C)C[C@@H]32)cc1` | 10.62 | - |
| 11 | `CC(=O)Nc1nc(C2CN(C(=O)C3CCC3)C2)cs1` | 10.97 | 2.083 |
| 12 | `CCn1cc(-c2cc(C(F)F)n3nc(CCC(=O)O)nc3n2)cn1` | 14.86 | -14.4 |
| 13 | `c1cc(CN2C[C@H](OCC3CCOCC3)[C@H]3COC[C@H]32)co1` | 4.156 | - |
| 14 | `CN(Cc1cccnc1)C[C@H]1CC[C@@H](Cc2ccc3c(cnn3C)c2)O1` | 9.192 | -5.071 |
| 15 | `O=C(NCc1cc[nH]n1)NCC(O)c1ccc(F)cc1` (configuration not stated) | 8.434 | -14.82 |
| 16 | `Cc1ccc(CC(=O)N2CCCC(n3ccnc3C(C)C)C2)cn1` (configuration not stated) | 9.714 | -13.96 |
| 17 | `Cn1c(C2CC2)nc2c1CCN(CCOc1cccc(F)c1)C2` | 24.1 | 2.745 |
| 18 | `O=C(O)C(F)(F)F.[H][C@@]12OCCN(C(=O)c3cc(C)[nH]c3C)[C@@]1([H])CC[C@H]2OCCN(C)C` | - | -25.69 |
| 19 | `COc1cc(-c2cc(C3CCOC3)c(C#N)c(N)n2)ccc1O` (configuration not stated) | 3.846 | -6.371 |
| 20 | `Cc1nc(CSCCC(=O)NCCNC(=O)OC(C)(C)C)cs1` | -14.39 | 5.18 |
| 21 | `Cc1c(CN2CCCC(c3[nH]ncc3S(C)(=O)=O)C2)cnn1C` (configuration not stated) | 16.43 | -19.68 |
| 22 | `COc1nc2cc(C)ccc2cc1CN(C)Cc1cc(C)[nH]n1.O=C(O)CC(O)(CC(=O)O)C(=O)O` | - | -1.641 |
| 23 | `Cc1nc(C)n(C2CCCN(C(=O)c3ccc(N(C)C)nn3)C2)n1` (configuration not stated) | 13.19 | -6.201 |
| 24 | `CC(C)C[C@@H](CO)n1cc(-c2cnc(-c3ccco3)nc2)nn1` | 6.138 | 11.95 |
| 25 | `CNC(=O)C(C)CNC(=O)c1coc(COc2cccc(F)c2F)n1` (configuration not stated) | 7.843 | -3.586 |
| 26 | `COCCn1ccc2cc(C(=O)N3CCN(S(C)(=O)=O)CC3)ccc21` | 12.2 | 72.24 |
| 27 | `CC(C)CN1CCC2(CC1)C(=O)Nc1ccc(C(=O)NC(C)C)cc12` | 15.23 | - |
| 28 | `COc1cc(CNCc2ccc(-n3nc(C)cc3C)nc2)cc(OC)c1` | 12.02 | -11.17 |
| 29 | `Cn1ncc(N2CCC(CNC3CC(C)(C)CC(C)(C)C3)C2)cc1=O` (configuration not stated) | 4.835 | -8.491 |
| 30 | `CSCC(C)(O)CNC(=O)c1ccc(F)cc1Cl` (configuration not stated) | 17.6 | 3.327 |
| 31 | `O=C(O)C(F)(F)F.O=C(O)C(F)(F)F.O=C(c1cccnc1)N1CCn2nnc(COc3cccnc3)c2C1` | - | 7.409 |
| 32 | `CN(C)c1ncccc1CNC(=O)N1CCCC1c1ccsc1` (configuration not stated) | 14.98 | -14.97 |
| 33 | `COc1cccc(CCC2CCCN(C(=O)c3ccc(=O)n(C)n3)C2)c1` (configuration not stated) | 15.85 | 0.353 |
| 34 | `CCNC(=O)N1CCC(NC(=O)NCCCc2cccc(F)c2)C1` (configuration not stated) | 20.64 | 0.8 |
| 35 | `CCc1ccc(C(C)NC(=O)CN(C)Cc2ccc(C)o2)cc1` (configuration not stated) | 7.692 | 7.914 |
| 36 | `CC(C)Cn1cncc1CNC1CCCNC1` (configuration not stated) | 17.63 | -27 |
| 37 | `Cc1nc(O)cc(CCNC(=O)CC[C@@H]2CCCN3CCCC[C@H]23)n1` | 9.067 | - |
| 38 | `O=C(CCn1cncn1)NC1(c2cccc(Br)c2)CCC1` | 7.874 | -36.4 |
| 39 | `O=C1[C@H]2CN(Cc3ccc(F)cc3)C[C@H]2CN1CCN1CCCC1` | 6.162 | - |
| 40 | `Cc1occc1-c1nc(-c2cccc(CN3CCOCC3)c2)no1` | 4.57 | 16.02 |
| 41 | `COC1CCN(C(=O)CC2CCCC2)CC(=O)N(C)c2ccccc21` (configuration not stated) | 10.68 | 27.7 |
| 42 | `Cc1c[nH]cc1C(=O)N1CCN(Cc2nc(C(C)C)no2)CC1` | -4.127 | 26.37 |
| 43 | `CSc1ccc(-c2nc(CN3CCC(NC(C)=O)C3)c(C)o2)cc1` (configuration not stated) | 12.68 | -1.455 |
| 44 | `CC(C)N1CCCC(Cc2nccnc2Cl)C1` (configuration not stated) | 20.63 | -6.515 |
| 45 | `CCN(Cc1cscn1)CC1(C)Cc2c(N)nc(N)nc2O1` (configuration not stated) | 14.6 | -7.887 |
| 46 | `Cc1cc(N2CCC(CO)(CC3CCCCO3)CC2)c2ccccc2n1` (configuration not stated) | 4.02 | -3.721 |
| 47 | `O=C(NC1CC1)[C@H]1C[C@@H]2CCN(CCc3ccccc3)C[C@H]2O1` | 8.711 | - |
| 48 | `COCCCC1(CO)CCCN(Cc2cccc(C#N)c2)C1` (configuration not stated) | 10.64 | -24.82 |
| 49 | `Cn1c(N2CCOCC2)nc2cc(C(=O)NCC(F)(F)F)ccc21` | 15.01 | 6.575 |
| 50 | `CC(C)N(C)Cc1cncc2c1CCN(CC1CC1)C2` | 4.692 | - |
| 51 | `Cc1cc(C(=O)N2CCCC3(COCCN(CCN(C)C)C3)C2)no1` (configuration not stated) | 19.26 | - |
| 52 | `CC(NCc1cccs1)c1ccc(OCc2nccn2C)cc1` (configuration not stated) | 11.76 | -30.57 |
| 53 | `COc1nccnc1-c1cc(NC2CCNCC2)nc2[nH]ccc12` | -4.27 | -16.12 |
| 54 | `CC(=O)N1CCC(Cc2cccc(-c3c(C)noc3C)n2)C1` (configuration not stated) | 9.04 | 5.311 |
| 55 | `CS(=O)(=O)CCNC(=O)C1(c2cccc(Cl)c2)CCCCC1` | -56.64 | 10.34 |
| 56 | `Cc1cnn(CCNCc2nnc(-c3ccc(F)cc3)o2)c1` | 15.85 | -15.98 |
| 57 | `Cc1cnn(CC2CCCN2Cc2nnsc2Cl)c1` (configuration not stated) | 1.408 | -0.2983 |
| 58 | `Cc1cc(C)c(CNC(=O)N2CCCC2C(N)=O)c(=O)[nH]1` (configuration not stated) | 9.028 | 1.354 |
| 59 | `NC(=O)Cn1cc(NC(=O)N2CCSCC2)cn1` | 11.05 | 7.444 |
| 60 | `O=C(CCc1cccnc1)N(Cc1ccsc1)CC1CCCO1` (configuration not stated) | 14.86 | -0.1698 |
| 61 | `CC(C)(C)c1noc(CN2CCCC(CNS(N)(=O)=O)C2)n1` (configuration not stated) | 13.4 | 5.151 |
| 62 | `Cc1noc(C)c1CN1CCOCC12CCN(c1nccs1)CC2.O=C(O)C(F)(F)F` | - | 25.37 |
| 63 | `CC(C)CCS(=O)(=O)N1CCCC(c2nncn2C(C)C)C1` (configuration not stated) | 14.37 | -4.792 |
| 64 | `CCC(Nc1nccc(C2CCCC2)n1)c1ncccc1C` (configuration not stated) | 1.718 | 10.32 |
| 65 | `O=CO.c1nc(CN2CCCC(Cc3ccc(NC4CCCC4)nn3)C2)c[nH]1` (configuration not stated) | - | 20.05 |
| 66 | `CN(CC(=O)N1CCCCC1Cn1cccn1)Cc1ccccc1` (configuration not stated) | 0.8451 | -18.66 |
| 67 | `O=C(N1CCOCC1)N1CCCC1c1nc(-c2ccccn2)no1` (configuration not stated) | -4.819 | 17.9 |
| 68 | `Cc1cc(C(F)(F)F)nn1CC(C)C(=O)Nc1ccncc1` (configuration not stated) | 9.544 | 5.65 |
| 69 | `Cc1nccn1CCC1CCN(C(C)C)CC1` | 16.77 | 6.201 |
| 70 | `CNC(=O)[C@@H](c1ccccc1OC)N1CCC[C@H]1C(=O)N1CCC1.Cl` | - | -22.16 |

For reference, 4 entries once more:

compound,LdMetRS,Mtb heat-shock
CS(=O)(=O)CCNC(=O)C1(c2cccc(Cl)c2)CCCCC1,-56.64,10.34
Cc1cc(C[C@@H]2CCC[C@H]2NCc2cc(C)c(O)c(C)c2)on1.O=C(O)CC(O)(CC(=O)O)C(=O)O,-,10.63
CCc1ccc(C(C)NC(=O)CN(C)Cc2ccc(C)o2)cc1 (configuration not stated),7.692,7.914
COc1cccc(CCC2CCCN(C(=O)c3ccc(=O)n(C)n3)C2)c1 (configuration not stated),15.85,0.353

Measurements from “University of Dundee, Small-Polar-MMV Screening Library” (2021), ChEMBL document CHEMBL3988442.